Part of at least one peptide drawing is inferred or uncertain, most often the ends. Side chains are listed from the residue outwards. Peptide text beside a SMILES is read from it. * marks the point of attachment. X1 = NCCCC[C@H](N)CN1CCC[C@H]1C(=O)*
Columns and labels:
surface nucleolin = surface nucleolin (Homo sapiens, UniProt P19338); assay: Surface nucleolin expression of MDA-MB 231 cells (biotinylated HB-19 pull-down, immunoblot); format: cell-based; design: cell expression of nucleolin by MDA-MB 231 cells; endogenous in cells; host or cells: MDA-MB 231 cells; details: 10 μM
TNF-α [1] = assay: TNF-α production by human primary PBMC stimulated by heat-killed Staphylococcus aureus (ELISA); format: cell-based; details: 10 μM; 10^8 HKSA/ml particles; 20 hours
TNF-α [2] = assay: TNF-α production by primary peritoneal murine macrophages stimulated by LPS (ELISA); format: cell-based, mouse; details: 10 μM of Nucant 7; LPS 10, 100 and 1000 ng/ml
IL-6 [3] = assay: IL-6 production by human primary PBMC stimulated by heat-killed Staphylococcus aureus (ELISA); format: cell-based; details: 10 μM; 10^8 HKSA/ml particles; 20 hours
CAM vessels = assay: Ex vivo angiogenesis model, chorio-allantoic membrane (CAM) of chicken embryo; details: 10 μM; 48 hours of incubation
IL-6 [4] = assay: IL-6 production by primary peritoneal murine macrophages stimulated by LPS (ELISA); format: cell-based, mouse; details: 10 μM of Nucant 7; LPS 10, 100 and 1000 ng/ml

Protein sequences, listed by entry. Tags and fused reporters are not part of them.
UniProt P19338, whole entry: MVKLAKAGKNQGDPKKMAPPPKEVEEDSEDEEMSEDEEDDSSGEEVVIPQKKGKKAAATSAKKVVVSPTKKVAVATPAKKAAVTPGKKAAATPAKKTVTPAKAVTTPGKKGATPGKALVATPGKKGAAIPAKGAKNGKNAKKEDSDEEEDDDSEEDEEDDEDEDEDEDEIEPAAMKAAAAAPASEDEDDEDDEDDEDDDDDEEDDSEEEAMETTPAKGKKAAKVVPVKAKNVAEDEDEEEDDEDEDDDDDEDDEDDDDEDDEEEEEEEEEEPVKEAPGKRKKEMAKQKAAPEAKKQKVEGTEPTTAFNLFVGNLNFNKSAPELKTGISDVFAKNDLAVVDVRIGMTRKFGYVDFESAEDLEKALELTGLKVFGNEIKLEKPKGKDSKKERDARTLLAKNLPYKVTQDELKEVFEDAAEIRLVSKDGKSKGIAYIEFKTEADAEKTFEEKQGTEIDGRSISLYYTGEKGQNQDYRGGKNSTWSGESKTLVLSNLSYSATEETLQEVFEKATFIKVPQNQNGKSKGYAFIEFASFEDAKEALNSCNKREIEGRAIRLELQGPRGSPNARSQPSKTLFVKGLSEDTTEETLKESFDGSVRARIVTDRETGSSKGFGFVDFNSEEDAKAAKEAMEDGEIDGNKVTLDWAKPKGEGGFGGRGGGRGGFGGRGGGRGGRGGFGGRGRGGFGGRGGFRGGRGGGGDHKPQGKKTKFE

With `CC(=O)N[C@@H](CCCCNC(=O)[C@H](CCCNC(=N)N)NC(=O)[C@@H]1CCCN1C[C@@H](N)CCCCN)C(=O)N[C@@H](C)C(=O)N[C@@H](CCCCNC(=O)[C@H](CCCNC(=N)N)NC(=O)[C@@H]1CCCN1C[C@@H](N)CCCCN)C(=O)N1CCC[C@H]1C(=O)NCC(=O)N[C@@H](CCCCNC(=O)[C@H](CCCNC(=N)N)NC(=O)[C@@H]1CCCN1C[C@@H](N)CCCCN)C(=O)N[C@@H](C)C(=O)N[C@@H](CCCCNC(=O)[C@H](CCCNC(=N)N)NC(=O)[C@@H]1CCCN1C[C@@H](N)CCCCN)C(=O)N1CCC[C@H]1C(=O)NCC(=O)N[C@@H](CCCCNC(=O)[C@H](CCCNC(=N)N)NC(=O)[C@@H]1CCCN1C[C@@H](N)CCCCN)C(=O)N[C@@H](C)C(=O)N[C@@H](CCCCNC(=O)[C@H](CCCNC(=N)N)NC(=O)[C@@H]1CCCN1C[C@@H](N)CCCCN)C(=O)N1CCC[C@H]1C(=O)NCC(N)=O` [Nucant 7] (Ac-K([Arg-X1])AK([Arg-X1])PGK([Arg-X1])AK([Arg-X1])PGK([Arg-X1])AK([Arg-X1])PG-NH2) the “reduction in surface nucleolin compared to cells treated with HB-19 and Nucant 3” value (surface nucleolin; 24 hours (same after 48 hours)) was “considerably greater reduction”, the “presence of surface nucleolin compared to untreated cells” value (surface nucleolin; 24 hours of treatment) was “reduction” and the “presence of surface nucleolin” value (surface nucleolin; 48 hours of treatment) was “non-detectable”. For the same molecule, the “inhibition of TNF-α production” value (TNF-α [1]) was “significant inhibition”, the “degree of inhibition of TNF-α production” value (TNF-α [2]) was “over 95%” and the “inhibition of IL-6 production” value (IL-6 [3]) was “significant inhibition”. For the same molecule, the “inhibition of angiogenesis compared to the control (image analysis)” value (CAM vessels) was ~50% and the “degree of inhibition of IL-6 production” value (IL-6 [4]) was “over 95%”.

Source: US8497349B2, “Use of multivalent synthetic ligands of surface nucleolin for treating cancer or inflammation” (Centre National de la Recherche Scientifique (CNRS), priority 2006, dated 2013)
